Source: the supplement of paper PMC4604168 (melanoma cell lines)
The other results are listed elsewhere or left out. Many values rest on one well or one pass, so single values are uncertain.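 The apoptosis fraction was the count of cleaved-PARP antibody-stained nuclei relative to all DNA-stained nuclei, imaged in 1,536-well plates. Screening doses were set so most cells survived, and baseline and induced cleaved-PARP levels vary greatly across cell lines.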

Columns and labels:
Assay in all cases: cleaved PARP positive nuclei fraction relative to DMSO control; melanoma cells; higher = more apoptosis
Details in all cases: library dose: low library concentration; 72 h
WM115 = test system: WM115
WM1716 = test system: WM1716
WM1745 = test system: WM1745
WM3526 = test system: WM3526
WM3619 = test system: WM3619
WM451Lu = test system: WM451Lu

Compound | cleaved PARP positive nuclei fraction (WM115) [%] | cleaved PARP positive nuclei fraction (WM1716) [%] | cleaved PARP positive nuclei fraction (WM1745) [%] | cleaved PARP positive nuclei fraction (WM3526) [%] | cleaved PARP positive nuclei fraction (WM3619) [%] | cleaved PARP positive nuclei fraction (WM451Lu) [%]
Cc1nc(Nc2ncc(C(=O)Nc3c(C)cccc3Cl)s2)cc(N2CCN(CCO)CC2)n1 [dasatanib] + COc1cc(N2CCC(N3CCN(C)CC3)CC2)ccc1Nc1ncc(Cl)c(Nc2ccccc2S(=O)(=O)C(C)C)n1 [NVP-TAE684] (first compound 0.004 µM, partner dose 0.08 µM) | 140 | 420 | 241 | 69.2 | 107 | 75.2
O=C(CCCCCCC(=O)Nc1ccccc1)NO [vorinostat] + COc1ccc2c(c1)CCC1C2CCC2(C)C(NCCCCCCN3C(=O)C=CC3=O)CCC12 [U73122] (first compound 0.08 µM, partner dose 0.4 µM) | 142 | 76.6 | 104 | 161 | 75.2 | 138
NC(=O)Nc1cc(-c2cccc(F)c2)sc1C(=O)N[C@H]1CCCNC1 + CC(C)CCN1c2nc(Nc3cc(F)c(O)c(F)c3)ncc2N(C)C(=O)C1C [BID1870] (first compound 0.02 µM, partner dose 0.2 µM) | 191 | 199 | 105 | 90.8 | 182 | 91
Cn1nnc2c(C(N)=O)ncn2c1=O [temozolomide] + COc1cc(N2CCC(N3CCN(C)CC3)CC2)ccc1Nc1ncc(Cl)c(Nc2ccccc2S(=O)(=O)C(C)C)n1 [NVP-TAE684] (first compound 2 µM, partner dose 0.08 µM) | 215 | 107 | 119 | 62.8 | 79.9 | 121
C=CCn1c(=O)c2cnc(Nc3ccc(N4CCN(C)CC4)cc3)nc2n1-c1cccc(C(C)(C)O)n1 + O=C(Nc1cccc(Cl)c1)Nc1ncc(CCNc2ncnc3ccsc23)s1 [SNS314] (first compound 0.02 µM, partner dose 0.0008 µM) | 336 | 69.8 | 112 | 88.2 | 102 | 84.2
Clc1ccc(Nc2nnc(Cc3ccncc3)c3ccccc23)cc1 [vatalanib] + O=c1cc(-c2cccc3c2Sc2ccccc2S3)oc(N2CCOCC2)c1 [KU55933] (first compound 2 µM, partner dose 1 µM) | 196 | 107 | 116 | 75.2 | 94.2 | 141
Cn1c(Nc2ccc(C(F)(F)F)cc2)nc2cc(Oc3ccnc(-c4ncc(C(F)(F)F)[nH]4)c3)ccc21 + CN(NC(=O)CC(=O)NN(C)C(=S)c1ccccc1)C(=S)c1ccccc1 [STA4783] (first compound 0.08 µM, partner dose 0.006 µM) | 646 | 301 | 140 | 53.3 | 129 | 167
Clc1ccc(Nc2nnc(Cc3ccncc3)c3ccccc23)cc1 [vatalanib] + C#Cc1cccc(Nc2ncnc3cc(OCCOC)c(OCCOC)cc23)c1 [erlotinib] (first compound 2 µM, partner dose 0.8 µM) | 188 | 46.7 | 121 | 89 | 103 | 47.4
CC1(C)NC(=O)N(c2ccc([N+](=O)[O-])c(C(F)(F)F)c2)C1=O [nilutamide] + COc1ccc2c(c1)CCC1C2CCC2(C)C(NCCCCCCN3C(=O)C=CC3=O)CCC12 [U73122] (first compound 1 µM, partner dose 0.4 µM) | 391 | 66.9 | 107 | 74.5 | 91.6 | 122
Cc1cc(N2CCOCC2)cc2[nH]c(-c3c(NC[C@@H](O)c4cccc(Cl)c4)cc[nH]c3=O)nc12 + COc1cc(N2CCC(N3CCN(C)CC3)CC2)ccc1Nc1ncc(Cl)c(Nc2ccccc2S(=O)(=O)C(C)C)n1 [NVP-TAE684] (first compound 0.2 µM, partner dose 0.08 µM) | 93.7 | 47 | 286 | 79.7 | 86.8 | 91.2
Clc1ccc(Nc2nnc(Cc3ccncc3)c3ccccc23)cc1 [vatalanib] + CO[C@@H]1[C@H](N(C)C(=O)c2ccccc2)C[C@H]2O[C@]1(C)n1c3ccccc3c3c4c(c5c6ccccc6n2c5c31)C(=O)NC4 [Midostaurin] (first compound 2 µM, partner dose 0.08 µM) | 119 | 225 | 112 | 64 | 150 | 544
CC1(C)NC(=O)N(c2ccc([N+](=O)[O-])c(C(F)(F)F)c2)C1=O [nilutamide] + CCCCCCCCCCCC1=C(O)C(=O)C=C(O)C1=O [Embelin] (first compound 1 µM, partner dose 1.2 µM) | 94.2 | 135 | 94.4 | 61.8 | 77.5 | 72.8
COc1cc(Nc2ncc(F)c(Nc3ccc4c(n3)NC(=O)C(C)(C)O4)n2)cc(OC)c1OC [Tamatinib] + CO[C@@H]1[C@H](N(C)C(=O)c2ccccc2)C[C@H]2O[C@]1(C)n1c3ccccc3c3c4c(c5c6ccccc6n2c5c31)C(=O)NC4 [Midostaurin] (first compound 0.4 µM, partner dose 0.08 µM) | 90.8 | 290 | 170 | 80.9 | 142 | 123
CC(C)(C)c1cnc(CSc2cnc(NC(=O)C3CCNCC3)s2)o1 + C[C@@H]1CCN(C(=O)CC#N)C[C@@H]1N(C)c1ncnc2[nH]ccc12 [CP690550] (first compound 0.01 µM, partner dose 1 µM) | 80.3 | 153 | 95.6 | 117 | 102 | 403
Cc1ccc(NC(=O)c2cccc(N(C)C)c2)cc1NC(=O)c1ccc(O)cc1 + COC(=O)c1sccc1S(=O)(=O)Nc1ccc(Nc2ccccc2)cc1OC [GSK0660] (first compound 2 µM, partner dose 1 µM) | 253 | 61.4 | 100 | 69.8 | 86.8 | 108
OCc1c[nH]c2ccccc12 [Indole-3-carbinol] + CCc1ccc(CCOc2ccc(CC3SC(=O)NC3=O)cc2)nc1 [pioglitazone] (first compound 0.8 µM, partner dose 2 µM) | 116 | 464 | 90.6 | 33.6 | 91.1 | 91.8
C[C@]1(c2nc3c(C(N)=O)cccc3[nH]2)CCCN1 [Veliparib] + O=S(=O)(c1ccccc1)N(CC(F)(F)F)c1ccc(C(O)(C(F)(F)F)C(F)(F)F)cc1 [T0901317] (first compound 1.4 µM, partner dose 1.4 µM) | 219 | 117 | 134 | 79.5 | 99.2 | 273
CO[C@@H]1[C@H](N(C)C(=O)c2ccccc2)C[C@H]2O[C@]1(C)n1c3ccccc3c3c4c(c5c6ccccc6n2c5c31)C(=O)NC4 [Midostaurin] + Oc1cc(-c2nc(-c3ccccc3)[nH]c2-c2ccncc2)ccc1Cl [L779450] (first compound 0.08 µM, partner dose 0.2 µM) | 114 | 79.1 | 126 | 573 | 112 | 64.3
C[C@]1(c2nc3c(C(N)=O)cccc3[nH]2)CCCN1 [Veliparib] + CC(C)(C)c1cnc(CSc2cnc(NC(=O)C3CCNCC3)s2)o1 [SNS-032] (first compound 1.4 µM, partner dose 0.01 µM) | 101 | 88.8 | 192 | 27.4 | 119 | 203
OCCn1cc(-c2cnc3nnn(Cc4ccc5ncccc5c4)c3n2)cn1 + Oc1nc(-c2ccc(C(F)(F)F)cc2)nc2c1CSCC2 [XAV939] (first compound 1 µM, partner dose 2 µM) | 447 | 371 | 111 | 28.4 | 75.8 | 557
NC(=O)Nc1cc(-c2cccc(F)c2)sc1C(=O)N[C@H]1CCCNC1 + NCC(=O)Nc1ccc(-n2nc(C(F)(F)F)cc2-c2ccc3c(ccc4ccccc43)c2)cc1 [OSU03012] (first compound 0.02 µM, partner dose 1 µM) | 95.7 | 201 | 82 | 131 | 120 | 132
CC(=O)c1c(C)c2cnc(Nc3ccc(N4CCNCC4)cn3)nc2n(C2CCCC2)c1=O [palbociclib] + C[C@]1(c2nc3c(C(N)=O)cccc3[nH]2)CCCN1 [Veliparib] (first compound 0.04 µM, partner dose 1.4 µM) | 104 | 111 | 110 | 84.4 | 128 | 106
C=CCn1c(=O)c2cnc(Nc3ccc(N4CCN(C)CC4)cc3)nc2n1-c1cccc(C(C)(C)O)n1 + NC(=O)Nc1cc(-c2cccc(F)c2)sc1C(=O)N[C@H]1CCCNC1 [AZD7762] (first compound 0.02 µM, partner dose 0.02 µM) | 324 | 130 | 117 | 134 | 355 | 236
Nc1cccc2c1CN(C1CCC(=O)NC1=O)C2=O (stereo unspecified) [lenalidomide] + Cc1ccc(NC(=O)c2cccc(N(C)C)c2)cc1NC(=O)c1ccc(O)cc1 [ZM336372] (first compound 1 µM, partner dose 2 µM) | 115 | 102 | 83 | 53.7 | 93.9 | 71.8
C[C@@H]1CCN(C(=O)CC#N)C[C@@H]1N(C)c1ncnc2[nH]ccc12 + COc1cc2ncnc(Nc3ccc(Oc4ccccc4)cc3)c2cc1OC [SrcI1] (first compound 1 µM, partner dose 2 µM) | 61.9 | 109 | 116 | 52.6 | 73.6 | 109
Cc1nc(Nc2ncc(C(=O)Nc3c(C)cccc3Cl)s2)cc(N2CCN(CCO)CC2)n1 [dasatanib] + COc1ccc2c(c1)CCC1C2CCC2(C)C(NCCCCCCN3C(=O)C=CC3=O)CCC12 [U73122] (first compound 0.004 µM, partner dose 0.4 µM) | 279 | 138 | 160 | 369 | 102 | 49.4

Looked up one by one from above:
Compound | cleaved PARP positive nuclei fraction (WM115) [%] | cleaved PARP positive nuclei fraction (WM1716) [%] | cleaved PARP positive nuclei fraction (WM1745) [%] | cleaved PARP positive nuclei fraction (WM3526) [%] | cleaved PARP positive nuclei fraction (WM3619) [%] | cleaved PARP positive nuclei fraction (WM451Lu) [%]
C[C@@H]1CCN(C(=O)CC#N)C[C@@H]1N(C)c1ncnc2[nH]ccc12 + COc1cc2ncnc(Nc3ccc(Oc4ccccc4)cc3)c2cc1OC [SrcI1] (first compound 1 µM, partner dose 2 µM) | 61.9 | 109 | 116 | 52.6 | 73.6 | 109
Clc1ccc(Nc2nnc(Cc3ccncc3)c3ccccc23)cc1 [vatalanib] + C#Cc1cccc(Nc2ncnc3cc(OCCOC)c(OCCOC)cc23)c1 [erlotinib] (first compound 2 µM, partner dose 0.8 µM) | 188 | 46.7 | 121 | 89 | 103 | 47.4
